Results are given in words; binding and its absence hold for the method and conditions named. In cells and extracts the contact can be indirect. Some binding calls cover weakened binding; strength is not graded here.

Amino acid sequences for entries named in this document (tags omitted).
UniProt P49841: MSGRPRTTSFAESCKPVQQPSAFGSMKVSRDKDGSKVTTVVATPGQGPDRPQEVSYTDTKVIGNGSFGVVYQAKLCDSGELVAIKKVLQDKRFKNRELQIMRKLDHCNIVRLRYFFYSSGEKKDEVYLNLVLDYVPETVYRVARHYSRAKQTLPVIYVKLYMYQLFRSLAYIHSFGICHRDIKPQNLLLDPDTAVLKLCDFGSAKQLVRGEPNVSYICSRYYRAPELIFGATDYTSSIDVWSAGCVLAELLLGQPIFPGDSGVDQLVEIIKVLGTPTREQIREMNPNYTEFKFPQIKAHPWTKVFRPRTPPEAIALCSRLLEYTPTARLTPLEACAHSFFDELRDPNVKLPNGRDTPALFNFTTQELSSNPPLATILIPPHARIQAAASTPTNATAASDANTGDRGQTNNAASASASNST

For this assay, the target named is T1, dishevelled 3 (DVL3), endogenous in myeloma cells (human (endogenous in ARP1 and H929)) (UniProt Q92997).
T1 sequence: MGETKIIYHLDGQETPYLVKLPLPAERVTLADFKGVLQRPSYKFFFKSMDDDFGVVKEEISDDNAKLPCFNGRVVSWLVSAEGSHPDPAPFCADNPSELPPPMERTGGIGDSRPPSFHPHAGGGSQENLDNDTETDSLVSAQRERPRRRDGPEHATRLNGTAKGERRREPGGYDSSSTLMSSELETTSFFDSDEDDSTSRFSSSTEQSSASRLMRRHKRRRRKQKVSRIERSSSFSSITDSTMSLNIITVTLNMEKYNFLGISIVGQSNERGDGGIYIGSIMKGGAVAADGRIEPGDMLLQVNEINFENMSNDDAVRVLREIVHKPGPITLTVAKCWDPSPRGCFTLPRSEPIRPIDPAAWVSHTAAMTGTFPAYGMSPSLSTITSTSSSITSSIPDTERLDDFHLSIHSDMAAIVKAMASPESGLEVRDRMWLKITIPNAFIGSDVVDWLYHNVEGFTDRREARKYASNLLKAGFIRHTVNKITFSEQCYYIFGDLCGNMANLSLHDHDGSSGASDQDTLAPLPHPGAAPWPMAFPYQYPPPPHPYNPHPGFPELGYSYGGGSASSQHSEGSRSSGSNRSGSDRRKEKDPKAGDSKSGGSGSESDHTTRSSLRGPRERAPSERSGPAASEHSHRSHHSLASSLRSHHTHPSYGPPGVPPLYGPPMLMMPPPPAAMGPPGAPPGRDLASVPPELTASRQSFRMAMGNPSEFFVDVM
Description: co-IP; lysates of myeloma cells (ARP1 and H929 PNPO‐OE; EV cells for comparison), RIPA lysis buffer, Pierce Direct Magnetic IP/Co‐IP Kit, IgG as negative control; also after pre‐treatment with GSH or with Eltrombopag (binding weakened).

Turning to “GSK3β, endogenous in myeloma cells (from UniProt P49841 1-420) (enzyme)”, the binding result is reported as “binds”.

Values taken from publication PMC11792023, “PNPO‐Mediated Oxidation of DVL3 Promotes Multiple Myeloma Malignancy and Osteoclastogenesis by Activating the Wnt/β‐Catenin Pathway” (Advanced Science, 2024).
